We go through 23 sequences from article PMC7819943, “Rice protein-binding microarrays: a tool to detect cis-acting elements near promoter regions in rice”.

The chains behind the UniProt entries cited, without tags or fusion partners.
UniProt Q0JBA9, entry or part of it: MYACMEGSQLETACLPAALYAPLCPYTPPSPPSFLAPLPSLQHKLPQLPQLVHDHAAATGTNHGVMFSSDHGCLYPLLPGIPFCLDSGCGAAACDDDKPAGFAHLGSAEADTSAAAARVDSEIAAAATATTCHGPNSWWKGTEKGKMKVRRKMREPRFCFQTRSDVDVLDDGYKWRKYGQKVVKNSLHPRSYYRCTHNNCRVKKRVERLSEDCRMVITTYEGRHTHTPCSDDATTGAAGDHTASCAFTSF

Some of the results follow.

For this assay, the target named is OsWRKY34 (Oryza sativa, UniProt Q0JBA9 1-250). Description: protein-binding microarray (RPBM); PBS, 2% BSA, 51.3 ng/ul salmon testes DNA, 50 uM zinc acetate, 200 nM TF, 25 C, 1 h; high values mean tight binding. Conditions: protein: recombinant; tags: N-terminal polyhistidine and DsRed monomer fusion (pET32a); label: CyDye5-dUTP incorporated in the synthesized complementary strand; 3' TTTTT single-stranded linker to array surface; dsDNA, one strand shown. Put shortly: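 A custom Agilent array was converted to double-stranded form by primer extension with Cy5-dUTP and blocked with 2% BSA. Protein at 200 nM in PBS with 2% BSA, salmon testes DNA and 50 µM zinc acetate was applied for 1 h at 25 °C, followed by washing. The proteins were polyhistidine–DsRed N-terminal fusions of transcription factors, expressed in E. coli BL21-CodonPlus and Ni–NTA-purified. The binding signal is per-feature fluorescence intensity (arbitrary units) from an Axon 4000B scanner.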
For the sequence “ACCACCATCCTTCATCACCGCCTCCGTTCCGTTCCCCATGCGGAGTCACCTAGTGCAG”, the binding signal is 8440 fluorescence intensity (a.u.).
As for “CCTTGGTTTTAATTAATTCAATTTCTCGCCTCTTTTCTTCCGGAGTCACCTAGTGCAG”, the binding signal is 8620 fluorescence intensity (a.u.).
As for “TCAACTCAAGGTGTTTTCTGATTGTGGACTGTTTGACCTCCGGAGTCACCTAGTGCAG”, the binding signal was 9870 fluorescence intensity (a.u.).
Turning to “TCCCGTAGTTCTTCCGTCCCATCGTCGCGCACAATAAAGACGGAGTCACCTAGTGCAG”, the binding signal is 9720 fluorescence intensity (a.u.).
In the case of “CGCGCTGTGGATTAGGGAGGTGGAGTGGATCAGGACGGGGCGGAGTCACCTAGTGCAG”, the binding signal was 8080 fluorescence intensity (a.u.).
Take “CATCATACAGTAACAGCACAAGCACACACTACACGCACTCCGGAGTCACCTAGTGCAG”: the binding signal was 8640 fluorescence intensity (a.u.).
In the case of “TTTCCCTTTGTTCATTCTGTTTTCAGCTTATAATTAAGCTCGGAGTCACCTAGTGCAG”, the binding signal is 8260 fluorescence intensity (a.u.).
With “GAAAACTTTACGTCCCCTGGCCTAAACACTCTTTTAGTTCCGGAGTCACCTAGTGCAG”, the binding signal was 9430 fluorescence intensity (a.u.).
Consider “CTACTCCTTCTGCTCCTGCTGACTATCGTGCTCCACCTTTCGGAGTCACCTAGTGCAG”, for which the binding signal was 9660 fluorescence intensity (a.u.).
For the sequence “TGTTGTCCTGCGTTTTTGACTGTGCTTCTTAAAAAAAAAACGGAGTCACCTAGTGCAG”, the binding signal is 8210 fluorescence intensity (a.u.).
In the case of “GCTGTGGGTAGGCCGGCGCCGCCGGCCGACGGGTGGGGAGCGGAGTCACCTAGTGCAG”, the binding signal was 8420 fluorescence intensity (a.u.).
With “TCAATCATACGTTAATACCACCTTATTTTGTGTAAAAATCCGGAGTCACCTAGTGCAG”, the binding signal was 8260 fluorescence intensity (a.u.).
The value for “AAAATGCGAGCTACCCATCACCACACGCCACGTACTCATGCGGAGTCACCTAGTGCAG” was 9180 fluorescence intensity (a.u.).
The figure for “ATATATATATATATATATATATATCATCAATCTTTAGTTCCGGAGTCACCTAGTGCAG” is 8040 fluorescence intensity (a.u.).
On to “GTTGGCTATTTAATTGATTTCCTATACCTCAACAAAGTAACGGAGTCACCTAGTGCAG”, for which the binding signal was 9140 fluorescence intensity (a.u.).
With “GCCGCCGTCCTTGGCTCCTCACCTGTTGCCCGCAATTGCCCGGAGTCACCTAGTGCAG”, the binding signal was 8470 fluorescence intensity (a.u.).
On to “TGGGGTGGTTCAAATGTCGACGTGATGGTCATTTTTCTTTCGGAGTCACCTAGTGCAG”, for which the binding signal is 16000 fluorescence intensity (a.u.).
With “TGAATTTGAAGCCCCACTTTTTTTGCCATATTTGTCACATCGGAGTCACCTAGTGCAG”, the binding signal was 8410 fluorescence intensity (a.u.).
On to “ATTATATATTTCTGTTGTAGTGATTTTAGCTTGTCATTTACGGAGTCACCTAGTGCAG”, for which the binding signal was 12900 fluorescence intensity (a.u.).
As for “ATGCCCCTGGCCCTTCTGCTGCCCCGTCCATTTCCCGTCCCGGAGTCACCTAGTGCAG”, the binding signal is 8060 fluorescence intensity (a.u.).
Take “ACTTTTCTTTGAGTCTCTCTCTCATCCAATTCTTGTGTTTCGGAGTCACCTAGTGCAG”: the binding signal is 10200 fluorescence intensity (a.u.).
On to “ACCTCCCTGATGGCCACCTTCGCTTCGTTCTTAAGCTCTCCGGAGTCACCTAGTGCAG”, for which the binding signal is 9480 fluorescence intensity (a.u.).
On to “GGTGCGCTCCTCCCCACCTGCGCCATCGCCAACGCCAACGCGGAGTCACCTAGTGCAG”, for which the binding signal was 9990 fluorescence intensity (a.u.).
